Our source for the binding result and Kd values is PMC12499412.

By UniProt entry, the sequences of proteins in these tests, tags left out. Residues count along the entry.
UniProt P02769, 25-607: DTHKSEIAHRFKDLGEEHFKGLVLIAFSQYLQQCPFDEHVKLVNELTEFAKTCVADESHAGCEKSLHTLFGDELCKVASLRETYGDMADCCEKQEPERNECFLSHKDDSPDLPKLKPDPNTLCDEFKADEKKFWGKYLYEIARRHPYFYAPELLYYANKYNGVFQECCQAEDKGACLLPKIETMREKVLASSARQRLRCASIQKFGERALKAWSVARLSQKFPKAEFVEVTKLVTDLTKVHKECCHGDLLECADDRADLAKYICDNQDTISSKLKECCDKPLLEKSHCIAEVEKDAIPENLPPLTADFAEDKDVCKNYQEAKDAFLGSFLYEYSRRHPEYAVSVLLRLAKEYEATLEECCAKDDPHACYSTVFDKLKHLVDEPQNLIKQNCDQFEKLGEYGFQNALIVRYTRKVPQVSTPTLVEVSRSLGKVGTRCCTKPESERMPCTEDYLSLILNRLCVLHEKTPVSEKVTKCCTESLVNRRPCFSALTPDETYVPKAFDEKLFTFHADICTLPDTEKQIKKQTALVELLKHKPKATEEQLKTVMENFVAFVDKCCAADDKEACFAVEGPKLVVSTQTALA
UniProt P01137, 30-390: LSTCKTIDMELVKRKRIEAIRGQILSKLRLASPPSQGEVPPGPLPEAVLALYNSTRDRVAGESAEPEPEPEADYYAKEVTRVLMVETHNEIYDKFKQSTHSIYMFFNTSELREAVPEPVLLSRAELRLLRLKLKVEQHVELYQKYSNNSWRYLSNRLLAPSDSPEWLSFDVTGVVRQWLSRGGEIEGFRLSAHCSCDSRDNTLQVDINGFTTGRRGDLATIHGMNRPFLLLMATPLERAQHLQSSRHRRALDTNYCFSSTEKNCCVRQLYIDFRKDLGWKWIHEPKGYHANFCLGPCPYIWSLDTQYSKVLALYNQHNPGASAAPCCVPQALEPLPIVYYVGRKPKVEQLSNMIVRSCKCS

Usually Kd stands for the free concentration of one partner at which half of the binding sites on the other are occupied at equilibrium, for simple one-to-one binding. A higher Kd goes with lower affinity.

For some assays here: A negative result means that nothing was seen under these conditions. For some assays here: Construct, isoform or probe ends are uncertain for at least one entry.

The target of one series is BSA (UniProt P02769). Description: MST. The settings on record: aptamer:protein 1:50; phosphorothioates at A and C bases (positions marked * in Table S3); MST: 30 nM Cy5-a'-Apt final with 45 pM (4.5 pM in Fig S3 legend) to 1.5 uM protein, 37 °C, 2 h; specificity MST 5 nM aptamer, 0.25 uM protein; commercial protein; label: 5'-Cy5; single-stranded DNA.
The target in a further series is latent TGFβ1 (UniProt P01137). The experiment in a line: MST. The following applies: 37 °C, 2 h, phosphorothioates at A and C bases (positions marked * in Table S3), MST: 30 nM Cy5-a'-Apt final with 45 pM (4.5 pM in Fig S3 legend) to 1.5 uM protein, specificity MST 5 nM aptamer, 0.25 uM protein, commercial protein, label: 5'-Cy5, single-stranded DNA.

In the case of “TCGCTCGGCTTCACGAGATTCGTGTCGTTGTGTCCTGTACCCGCCTTGACCAGTCACTCTAGAGCATCCGGACTGTAGATGGAGTGTGGTGTGAAG [Cy5-a'-Apt]”, the binding result with BSA is reported as “no binding”. In addition, the Kd in the series with latent TGFβ1 is 152 nM.
